According to paper PMC7819943, “Rice protein-binding microarrays: a tool to detect cis-acting elements near promoter regions in rice”:
The list shows a part of the results.

Protein sequences, listed by entry. Tags and fused reporters are not part of them.
UniProt Q0JBA9, entry or part of it: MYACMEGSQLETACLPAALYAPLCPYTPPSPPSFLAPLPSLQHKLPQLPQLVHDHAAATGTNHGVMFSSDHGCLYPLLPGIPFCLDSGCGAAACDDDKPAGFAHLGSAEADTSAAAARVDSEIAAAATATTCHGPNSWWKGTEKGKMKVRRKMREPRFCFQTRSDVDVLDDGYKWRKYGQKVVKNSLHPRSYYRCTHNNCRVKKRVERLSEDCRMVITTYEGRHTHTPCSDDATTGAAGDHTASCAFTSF

The sequences below were run against OsWRKY34 (Oryza sativa, UniProt Q0JBA9 1-250) (assay: protein-binding microarray (RPBM); PBS, 2% BSA, 51.3 ng/ul salmon testes DNA, 50 uM zinc acetate, 200 nM TF, 25 C, 1 h; high values mean tight binding). Conditions: protein: recombinant; tags: N-terminal polyhistidine and DsRed monomer fusion (pET32a); label: CyDye5-dUTP incorporated in the synthesized complementary strand; 3' TTTTT single-stranded linker to array surface; dsDNA, one strand shown.
Procedure, shortened: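 A custom Agilent array was converted to double-stranded form by primer extension with Cy5-dUTP and blocked with 2% BSA. Protein at 200 nM in PBS with 2% BSA, salmon testes DNA and 50 µM zinc acetate was applied for 1 h at 25 °C, followed by washing. The proteins were polyhistidine–DsRed N-terminal fusions of transcription factors, expressed in E. coli BL21-CodonPlus and Ni–NTA-purified. The binding signal is per-feature fluorescence intensity (arbitrary units) from an Axon 4000B scanner.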

Sequence	binding signal
GCTTTGTCCTAATGTTTTCCACTGCCTAAGTAACGGATCACGGAGTCACCTAGTGCAG	8490 fluorescence intensity (a.u.)
GGTTGAGTATTTGTCATGGTTTGTGGATGCATGGATGGTTCGGAGTCACCTAGTGCAG	10000 fluorescence intensity (a.u.)
CTTCTTTCTCAATATGTGATTTTCTTTCCTTAATCTCGTTCGGAGTCACCTAGTGCAG	8680 fluorescence intensity (a.u.)
GCACGGAGTACTTCCCATTCACCCCTTTCGCCCTCTCGCACGGAGTCACCTAGTGCAG	8390 fluorescence intensity (a.u.)
CCTTCCTCGCCTCGCCTCGGCTCTCACACGACGCCTCTTCCGGAGTCACCTAGTGCAG	9500 fluorescence intensity (a.u.)
GACACCACAGAAGCAGAGGCCATCACGCATCACTTTCTTCCGGAGTCACCTAGTGCAG	8290 fluorescence intensity (a.u.)
CCACCGCTTCCATTCTTCTCGCCTTTTTCTTCCACCGTTGCGGAGTCACCTAGTGCAG	9290 fluorescence intensity (a.u.)
CTCCCCACTGGCCGCCCTACATTCAGAGGTAGAGAAGAGTCGGAGTCACCTAGTGCAG	8290 fluorescence intensity (a.u.)
TCTTCCATTGGCTGGGGCGTCGGAGTCGGCTGACTCTTCCCGGAGTCACCTAGTGCAG	9680 fluorescence intensity (a.u.)
CTAATATTCCTTATTTTTAATTCCGAATTTCAGTTATTTCCGGAGTCACCTAGTGCAG	8490 fluorescence intensity (a.u.)
TTTCACAATGTAAGTCATTTTAGCATTTCCTACATTTATACGGAGTCACCTAGTGCAG	9300 fluorescence intensity (a.u.)
TATATGATGGTTGTGCACTACTAGCTTTGCAAGGGAGGGGCGGAGTCACCTAGTGCAG	9390 fluorescence intensity (a.u.)
ACTTTTTTTATGTAATGTTTGACCACTCATCTTATTAGAACGGAGTCACCTAGTGCAG	10800 fluorescence intensity (a.u.)
CAAGCTCATATCTCGCATGGAATTTTTTGTTTTTCTGCATCGGAGTCACCTAGTGCAG	8820 fluorescence intensity (a.u.)
GTTCCTTTCATTTTTTCTCCTCTTACTCTCTCTCTTCTCACGGAGTCACCTAGTGCAG	8950 fluorescence intensity (a.u.)
GTCTTTTGGTGGGTGGGAAATCACTTCCATTTCCCATTAGCGGAGTCACCTAGTGCAG	11300 fluorescence intensity (a.u.)
TGACTACAACCGCGTTTTCATTGTTTTTTTTTTTTTGACCCGGAGTCACCTAGTGCAG	8750 fluorescence intensity (a.u.)
GTAATTTCCATGGTCACAGTCACAGCGGACTCTGTTTCGACGGAGTCACCTAGTGCAG	8930 fluorescence intensity (a.u.)
TGGATTGTGTTGAGCTGGAAACTGCTAGCTGGTTAATACACGGAGTCACCTAGTGCAG	8330 fluorescence intensity (a.u.)
ATTTGTTCACTCGTTGACTGGCTTTGGCGCTTTATTTATGCGGAGTCACCTAGTGCAG	12000 fluorescence intensity (a.u.)
TCCGCCTCCCCTCGCGCCGCCGCCGCCGCCGCGTTGACCTCGGAGTCACCTAGTGCAG	11400 fluorescence intensity (a.u.)
GAATAATCTATTTACACTTGTACTTTGAATATTTTTTTGTCGGAGTCACCTAGTGCAG	8240 fluorescence intensity (a.u.)
GGTCAAACATTAGACAAAAAGTCAACGACGTCATGCATTACGGAGTCACCTAGTGCAG	15000 fluorescence intensity (a.u.)
CTACTGTGTCCTTTTCGTTGGCAACCATGGTTTCATTTTTCGGAGTCACCTAGTGCAG	9780 fluorescence intensity (a.u.)
TGGTCTCGTCTCCTCGTCTTCTCGCCGCCGCCGCGAGCGGCGGAGTCACCTAGTGCAG	11300 fluorescence intensity (a.u.)
CCCGCCTCGCCGCGCGCCGATGTTGCCGTCTCCCTGCGCGCGGAGTCACCTAGTGCAG	8100 fluorescence intensity (a.u.)
GCAGCACAATGTCCATCGCATCGCTCGTCCTCCTGCGGTCCGGAGTCACCTAGTGCAG	9700 fluorescence intensity (a.u.)

Part of the list above in another layout:
Sequence | binding signal
TCTTCCATTGGCTGGGGCGTCGGAGTCGGCTGACTCTTCCCGGAGTCACCTAGTGCAG | 9680 fluorescence intensity (a.u.)
CTAATATTCCTTATTTTTAATTCCGAATTTCAGTTATTTCCGGAGTCACCTAGTGCAG | 8490 fluorescence intensity (a.u.)

Remaining list, next part

Sequence	binding signal
CCTACTACTACTACAGCATCATCTACTACACACATGACACCGGAGTCACCTAGTGCAG	8490 fluorescence intensity (a.u.)
GCTATTTTTTCTCAGAATCTACATTATTGTATTTGTATTTCGGAGTCACCTAGTGCAG	9460 fluorescence intensity (a.u.)
AAATGGGGTGCTTTGTGTAAGTAGGTCCGCTTGTCTTGAACGGAGTCACCTAGTGCAG	8660 fluorescence intensity (a.u.)
TTCAGTTTTCACTTCATTATTTTGCCGTTTCTCTTTGACCCGGAGTCACCTAGTGCAG	12300 fluorescence intensity (a.u.)
AGGCTACACTATTAAACTTGCTCTTCTCAAGCTACTTCAACGGAGTCACCTAGTGCAG	8190 fluorescence intensity (a.u.)
CTTTTATCTTTTTCCGCTGCATTTGTAATCTTTTATATTTCGGAGTCACCTAGTGCAG	13400 fluorescence intensity (a.u.)
TCCTCTCCTCTCTTCTCTTCTCGACCTCCACTCCTCTCCACGGAGTCACCTAGTGCAG	11700 fluorescence intensity (a.u.)
TGAGGGCTGCTGTGCTATTCTTCCTGGACATCTCTGGGTCCGGAGTCACCTAGTGCAG	8650 fluorescence intensity (a.u.)
ACTTCAAATGTGTGTCCTTATATCCGAGGGGCGGGCCCACCGGAGTCACCTAGTGCAG	9320 fluorescence intensity (a.u.)
TCTCCACATGCACCATCTTATCTCAACTCCTTAGAATTCCCGGAGTCACCTAGTGCAG	8920 fluorescence intensity (a.u.)
CATCAATCGCTTTTGTTATTCCAGCGAGTTTTTGGGTTCTCGGAGTCACCTAGTGCAG	11100 fluorescence intensity (a.u.)
GCACTCATCACTCATCAGAGCTCCACCAACCCACCACAAACGGAGTCACCTAGTGCAG	11700 fluorescence intensity (a.u.)
TTAATCCATTCCACTTTACTCCAGCCAATCCTGGTTCCCGCGGAGTCACCTAGTGCAG	8360 fluorescence intensity (a.u.)
TGTCCTATCCAGCCGCCCTATGTCAGCCACATGCCAGATGCGGAGTCACCTAGTGCAG	8110 fluorescence intensity (a.u.)
TTTCTTTCAATATGGCATTAGTTGTCTTGCTGAGTTGGTTCGGAGTCACCTAGTGCAG	8420 fluorescence intensity (a.u.)
GCCTCCACACACGCATACCTATGGCTGTCCCGGCCACAGCCGGAGTCACCTAGTGCAG	10800 fluorescence intensity (a.u.)
TTCCAACAGTTGATATCGTGTTTTAAGGGTTCATCTTCTGCGGAGTCACCTAGTGCAG	8390 fluorescence intensity (a.u.)
CGCCGGCCTCCCACACCATTGGTGCTATTGCGGCCGCCCCCGGAGTCACCTAGTGCAG	8300 fluorescence intensity (a.u.)
GTCCGGTCCACTCGCCAGTCGCCACCACGAATTCCACCCCCGGAGTCACCTAGTGCAG	11900 fluorescence intensity (a.u.)
AGCGCTCGTGCATGGATGGTTTGGTTGCATGTTTTTTCACCGGAGTCACCTAGTGCAG	10500 fluorescence intensity (a.u.)
GTTCGTATGGTCACACGGTGTGCGTATATATGTCTCCTATCGGAGTCACCTAGTGCAG	8290 fluorescence intensity (a.u.)
CACCGTTGACTTTTTCTCACATGTTTGACCATTCGTCTTACGGAGTCACCTAGTGCAG	48400 fluorescence intensity (a.u.)
TTACCTCTGAAACTACTAGTAGAATTCTACCTTCTCTGAACGGAGTCACCTAGTGCAG	8420 fluorescence intensity (a.u.)
GCCAACTTTGTAATTACCCCGATTCAATTCATTCAATTCACGGAGTCACCTAGTGCAG	10700 fluorescence intensity (a.u.)
ACTATTTCACGTCTTGTATTTTTCCTATCCTCGAATCAAACGGAGTCACCTAGTGCAG	12500 fluorescence intensity (a.u.)
ACCTTCGGTGCACTTTTTCCTATTGCTAATTAGCCCGTTACGGAGTCACCTAGTGCAG	9020 fluorescence intensity (a.u.)
TGACACTGTCTCCAAAACACAACTTTGACTTCTTGTTTCTCGGAGTCACCTAGTGCAG	10400 fluorescence intensity (a.u.)
